Values from PubChem BioAssay AID1159594 (NIAID, 2016)
In all, the deposit lists 756 reagents; below is a part drawn at random. 130 of them (17%) count as active. 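Active calls cover both falls and rises of reporter activity; each row reflects one siRNA, not a gene-level verdict.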 A number with no mark means an inactive call. The numbers tell different reagents against one gene apart. Not given: the amount of reagent.

Purpose: 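Which core toll-like receptor signalling genes are needed for TNF promoter activation by Pam2CSK4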
Cells: human THP-1 B5 reporter cells, PMA-differentiated into macrophage-like cells
Reagents: single siRNA against human genes
Time to read-out: 48 to 72 hours after siRNA transfection; ligand exposure 4 hours
Treatment: Pam2CSK4 (TLR2/6 agonist) stimulation for 4 hours before lysis; dose not given
Measured: 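Robust z-score, relative to negative controls, of the firefly/renilla ratio from a TNF promoter reporter, after per-plate median/MAD scaling, mean of replicate screens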
Direction: TNF reporter z-score: higher = stronger TNF promoter reporter activity
Rule for the call: 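The depositor sorts siRNAs into z-score bands with cut-offs of 2.5, 2, 1.5 and 1; grade 50 and above, meaning |z| of 1.5 or more, counts as active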
Meaning of the calls: active = z-score beyond ±1.5 (either direction); inactive = z-score within ±1.5

Target gene | reagent no. | TNF reporter z-score, replicate mean
DUSP2 (GeneID 1844) | 1 | 0.209
DUSP2 (GeneID 1844) | 2 | -0.663
DUSP2 (GeneID 1844) | 3 | -3.43 (active)
DUSP2 (GeneID 1844) | 4 | -0.24
DUSP2 (GeneID 1844) | 5 | -0.245
DUSP2 (GeneID 1844) | 6 | 0.172
TRAF3 (GeneID 7187) | 1 | 0.242
TRAF3 (GeneID 7187) | 2 | 0.199
TRAF3 (GeneID 7187) | 3 | -0.108
TRAF3 (GeneID 7187) | 4 | -0.388
TRAF3 (GeneID 7187) | 5 | -0.753
TRAF3 (GeneID 7187) | 6 | 0.127
TRADD (GeneID 8717) | 1 | -1.47
TRADD (GeneID 8717) | 2 | -1.39
TRADD (GeneID 8717) | 3 | 0.122
TRADD (GeneID 8717) | 4 | -2.15 (active)
TRADD (GeneID 8717) | 5 | 0.339
TRADD (GeneID 8717) | 6 | -3.61 (active)

The list goes on, starting with the last 6 of the part before.
Target gene | reagent no. | TNF reporter z-score, replicate mean
TRADD (GeneID 8717) | 1 | -1.47
TRADD (GeneID 8717) | 2 | -1.39
TRADD (GeneID 8717) | 3 | 0.122
TRADD (GeneID 8717) | 4 | -2.15 (active)
TRADD (GeneID 8717) | 5 | 0.339
TRADD (GeneID 8717) | 6 | -3.61 (active)
TICAM2 (GeneID 353376) | 1 | -0.202
TICAM2 (GeneID 353376) | 2 | -0.14
TICAM2 (GeneID 353376) | 3 | -0.0198
TICAM2 (GeneID 353376) | 4 | 0.491
TICAM2 (GeneID 353376) | 5 | -0.879
TICAM2 (GeneID 353376) | 6 | -1.06
MAPK8 (GeneID 5599) | 1 | -0.0455
MAPK8 (GeneID 5599) | 2 | -0.307
MAPK8 (GeneID 5599) | 3 | -0.569
MAPK8 (GeneID 5599) | 4 | 0.952
MAPK8 (GeneID 5599) | 5 | -0.433
MAPK8 (GeneID 5599) | 6 | 0.642
LBP (GeneID 3929) | 1 | -0.17
LBP (GeneID 3929) | 2 | -0.859
LBP (GeneID 3929) | 3 | 0.615
LBP (GeneID 3929) | 4 | -1.28
LBP (GeneID 3929) | 5 | -0.142
LBP (GeneID 3929) | 6 | 0.395
PIK3R3 (GeneID 8503) | 1 | 1.24
PIK3R3 (GeneID 8503) | 2 | -0.78
PIK3R3 (GeneID 8503) | 3 | -0.582
PIK3R3 (GeneID 8503) | 4 | -0.399
PIK3R3 (GeneID 8503) | 5 | -0.969
PIK3R3 (GeneID 8503) | 6 | -1.94 (active)
LY96 (GeneID 23643) | 1 | -0.174
LY96 (GeneID 23643) | 2 | -0.0858
LY96 (GeneID 23643) | 3 | 0.451
LY96 (GeneID 23643) | 4 | -1.39
LY96 (GeneID 23643) | 5 | -0.491
LY96 (GeneID 23643) | 6 | -0.248
